One molecule from paper PMC5504286 can be followed below.

The chains behind the UniProt entries cited, without tags or fusion partners. Where a name states a change or a piece, a line headed by the entry shows the natural chain unless it says otherwise. A line that says so, or that is headed by a name, gives the form on record, which may keep a tag or linker. Residues count along the entry.
FLAG-tagged SRSF1 aa11-196 wild-type (Q07955, residues 11-196): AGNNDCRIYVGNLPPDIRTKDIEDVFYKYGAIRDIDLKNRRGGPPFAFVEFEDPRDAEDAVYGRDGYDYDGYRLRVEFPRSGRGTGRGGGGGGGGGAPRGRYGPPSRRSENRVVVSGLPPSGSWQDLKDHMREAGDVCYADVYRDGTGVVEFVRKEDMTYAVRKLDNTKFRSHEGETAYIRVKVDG
FLAG-tagged SRSF1 11-196 double R117,118A mutant (SRSF1-m2) (Q07955, form named): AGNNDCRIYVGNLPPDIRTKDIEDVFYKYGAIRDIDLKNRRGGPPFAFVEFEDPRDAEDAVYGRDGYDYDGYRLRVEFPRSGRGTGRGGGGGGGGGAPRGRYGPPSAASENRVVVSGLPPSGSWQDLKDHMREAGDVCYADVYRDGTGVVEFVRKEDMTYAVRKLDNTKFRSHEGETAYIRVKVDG

Experiment [1] concerns the target FLAG-tagged SRSF1 aa11-196 wild-type (human) (UniProt Q07955). In words: co-IP; anti-FLAG M2 affinity resin on total extracts of transfected N2A cells (48 h post-transfection), 2 mg total protein in 1 ml lysis buffer (50 mM Hepes pH7.5, 150 mM NaCl, 10% glycerol, 0.5% Triton X-100, 1 mM EDTA, 1 mM DTT), 2 h at 4 °C, 5 washes, eluted with 3xFLAG peptide; blot with anti-NXF1.

Experiment [2] addresses FLAG-tagged SRSF1 11-196 double R117,118A mutant (SRSF1-m2) (human) (UniProt Q07955). The experiment is described as above.

Results are given in words; binding and its absence hold for the method and conditions named. In cells and extracts the contact can be indirect. Some entries that bind do so weakly or less than the wild type.

B1: endogenous NXF1 (nuclear export factor 1) (protein, UniProt Q99JX7 1-618)
chain: MADEGKSYNEHDDRVSFPQRRKKGRGPFRWKCGEGNRRSGRGGSGVQSSRFEEDDGDVAMNDPQDGPRVRYNPYTNRPNRRGDGWHDRDRIHITVRRDRAPAERGGAGTSQDGTTKNWFKITIPYGRKYDKTWLLSMIQSKCSVPFNPIEFHYENTRAHFFVEDATTASALKGVNHKIQDRENRRISIIINASAPPYTVQNELKPEQIEQLKLIMSKRYDGNQQALDLKGLRSDPDLVAQNIDVVLNRRSCMAATLRIIEENIPELLSLNLSSNRLYKLDDMSSIVQKAPNLKTLNLSGNELKTERELDKIKGLKLEELWLDRNPMCDNFGDQSSYISAIRERFPKLLRLDGHELPPPISFDVEAPTMLPPCKGSYFGTENLKSLVLRFLQQYYVIYDSGDRQGLLYAYHDGACCSLSIPYNPQNPVRKNLAEYVKDSRNVKKLKEPTQRFRLLKHTRLNVVAFLNELPKTQHDVNAFVVDISAQTSTLLCFSVNGVFKEVDGKSRDSLRAFTRTFIAVPASNSGLCIVNDELFVRNASPEEIQRAFAMSAPTPSSSPVPTLSPEQQEMLQAFSTQSGMNLEWSQKCLQDNNWDYTRSAQAFTLLKAKGEIPEVAFMK
On to B1, for which the binding entry in experiment [1] and in experiment [2] was “binds” each time.
